Source: the supplement of paper PMC3334620
The full ranking holds about 33,000 sequences; the median of “E-score (-0.5 to 0.5)” is about -0.0059, and the highest 2% start at about 0.26. This is one part of the list.

target: T1, Cin5 (UniProt P40917); assay: PBM E-score (8-mer binding enrichment) (E-score (-0.5 to 0.5)); higher = stronger / more preferred TF binding; conditions: protein concentration: 100 nM; construct: GST-full length
T1 sequence: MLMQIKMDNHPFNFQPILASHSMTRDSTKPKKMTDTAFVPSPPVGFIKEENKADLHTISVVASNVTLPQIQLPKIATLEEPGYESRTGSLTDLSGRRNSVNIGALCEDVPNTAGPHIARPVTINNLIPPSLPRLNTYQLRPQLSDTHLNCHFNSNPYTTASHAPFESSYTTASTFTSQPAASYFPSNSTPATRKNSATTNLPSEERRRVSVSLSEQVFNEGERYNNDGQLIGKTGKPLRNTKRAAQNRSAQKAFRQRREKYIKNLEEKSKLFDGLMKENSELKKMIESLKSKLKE
Procedure, shortened: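 Yeast transcription factors, full-length or as DNA-binding domains, were expressed with a GST tag using PURExpress in vitro transcription/translation. At about 100-200 nM they were applied to universal all-10-mer Agilent arrays, double-stranded by primer extension on fresh or once-stripped slides. Fluorescent anti-GST detected bound protein, and masliner normalised the scans. E-scores for ungapped eight-base words, pooled with reverse complements, came from the Universal PBM Analysis Suite.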

Sequence	PBM E-score
CAGCGTCG	-0.0104
CCAGAGCC	-0.058
CGCTTCTC	0.0273
GACTAATA	0.229
ATGTAAGG	0.103
GCGCGCCA	0.105
ACATCTAA	-0.0123
CCTCGCAA	-0.0418
AACCCTCG	-0.116
CAGAGCGA	-0.00131
GTGGTTTA	0.0817
TTATTCAA	0.0609
AGGGGCGA	-0.129
AGCAGTAA	0.134
ATGATAGG	-0.0261
AGTCAAAT	0.105
AGGGTCCA	-0.306
GCATACGC	-0.107
ATACCCGA	0.0131
AGAGTAGG	0.127
ACTCTTGC	-0.108
CGCTTCAC	-0.054
GGGGAACA	-0.17
GAATTGTC	-0.0592
CGACCCAA	0.0574

Sequence	PBM E-score
ATCTGAGG	-0.00049
AGCAGAGG	-0.195
ACGTTCTC	0.0647
CTCCCGCC	-0.136
CTAAGTGA	0.0839
ATGCTATC	-0.00354
TCCAGAAA	0.0657
CAGTTACG	-0.0855
ACTCGATC	0.114
CACTTGCA	0.139
CAAGGCGA	-0.153
GGTGAGAA	0.0538
ACTGTGAA	0.0538
ACTCTATG	-0.0375
ACGGTCAG	-0.327
AGGAAACG	0.0763
CCCGTAAC	-0.0624
TGAGGCAA	0.0785
ACATTGAG	0.0404
GACTTAGA	-0.215
CAACAAAA	0.077
CACCCTTC	-0.0932
TCCGCGGA	0.226
CTCCGGAG	-0.056
ATACAAGG	-0.0112

Sequence	PBM E-score
ATGCATCA	0.287
AAACGCCC	-0.0126
CACAACTC	0.169
CAAACAAG	0.0817
GCATCTCA	0.137
GCAGCGCA	-0.0951
CTTTATCA	-0.0921
ACAGCATA	0.0813
AGTTTACC	-0.108
ACCGGCAA	-0.109
AACAGCCG	-0.0368
CAGATGAA	0.0352
GACGACAC	-0.0115
CAAAGATC	0.0133
AATGTCAG	0.0493
ACTCTCTA	-0.107
GCCGACGC	0.0517
CCTAGGCC	-0.141
CAAAGGGG	-0.0662
AGATTCAG	-0.0755
CGGAGTGA	0.0979
AGCCAGCG	-0.12
ACTCTCCT	-0.156
GCAGCGAA	-0.156
ATTCTAGG	-0.117

In a second layout: entries from further up
Sequence | PBM E-score
CAAAGATC | 0.0133
AATGTCAG | 0.0493
ACTCTCTA | -0.107
GCCGACGC | 0.0517
CCTAGGCC | -0.141
CAAAGGGG | -0.0662

Some of the entries above, reformatted:
Sequence | PBM E-score
CAGTTACG | -0.0855
ACTCGATC | 0.114
CACTTGCA | 0.139

(next part)

Sequence	PBM E-score
CTACAGAC	-0.21
AGGAACAG	-0.132
ACCCAGCA	-0.0912
ATCATCTA	0.16
ATCCTAAT	0.0491
CCTTGTTC	-0.102
CACCCAGA	0.0225
ATAGTGAC	0.0237
CATTGGCG	-0.214
ATGACGTA	0.338
ATGGTTGC	-0.0733
CAAGAACG	0.0383
GATGTGCA	0.0309
ATGTTTTC	0.121
ATCAAATA	0.242
ATACCTGC	-0.113
ATCGTAAT	0.385
CCATTCAA	0.0943
AGCTAATG	0.114
CGAGACAA	-0.0372
AGCTCACG	-0.0609
ACAAAGCA	0.179
ACTTAACA	0.0535
CGCTACAC	-0.139
CGCCGCGC	-0.137

Sequence	PBM E-score
CAGAAGCC	-0.164
TATCGCAA	0.175
GAGTGAAC	0.0563
AATGTGTA	0.0514
GGAGACAC	-0.0483
CACTATAC	0.0145
AGGGACGG	-0.304
AAAGCTAC	-0.0407
CACCAACG	-0.0803
CTCCTCTA	-0.279
TCGTCTCA	0.0753
CAGCAAAA	0.123
CCCCCGCG	-0.189
GCATTCGA	0.0901
CTCTTACC	0.156
AGCAGCCT	-0.148
AAATTTCG	0.0333
CCGTAAAA	0.002
GGGTAAAA	0.12
GACGGAAA	0.234
CTTGCCCA	-0.12
AGTCAGTG	0.0643
AGGAAACC	-0.035
ACACGGGG	-0.144
AATGAGAG	-0.00716

Sequence	PBM E-score
AACACTGT	-0.0444
ATTGGCCC	-0.293
CCGCGGAC	0.104
CACCAGCG	-0.0689
AACTTAAA	-0.00071
ATACTACA	0.285
AACGTTTC	-0.0321
CAGTAAAG	0.0392
CGCAGAAA	0.0572
GGTAGTGA	-0.056
GGACGACA	0.172
ATCCAAAA	0.0376
GCTTCAGA	-0.114
CTCATGAG	0.012
GAACTAGC	-0.0823
CCATAAGA	0.118
AGCGGGGC	-0.161
AGCGAATG	-0.0883
ACCATACG	0.1
AAGGCCTG	-0.231
GGTTTACA	0.0584
AGTAACGC	-0.155
AAACATGC	0.0556
ATTAGCTG	0.0626
AAAGTTTA	0.0887

Sequence	PBM E-score
TAATTACA	0.259
CGGGCGCA	-0.113
GATGAAAC	0.107
CTGAAATA	0.143
AACCTTCC	-0.0147
CAGAAACG	0.157
GCGTCACC	-0.292
ATCGAAAA	0.0865
CCGATGTA	-0.0591
CTTCTACC	-0.186
ATAGCCAC	-0.0146
ACATAGGC	0.0747
AGACCGTC	-0.25
CCTCCGCG	0.0153
TATAGAAA	0.0629
AAAGTACC	0.131
AATATCAG	0.171
ACTATAGT	0.174
GTTCGCAA	0.157
CTGCGGCC	-0.149
CTGCGGGC	-0.0788
GGCCCCCC	-0.441
